Results are given in words; binding and its absence hold for the method and conditions named. Binding seen in cells or lysates may run through a third protein. Some results given as binding are weak or reduced against the parent protein; the word gives no strength.
Target: coactivator protein p300-HA (UniProt Q09472)
Assay: co-IP; whole-cell extracts (RIPA buffer) of HEK 293T cells co-transfected with Foxp3 and p300-HA; precipitated with anti-HA monoclonal antibody and protein A/G plus-agarose overnight, washed four times with RIPA; blotted with anti-Foxp3 (ab10563)

Protein sequences, listed by entry. Tags and fused reporters are not part of them.
UniProt Q09472: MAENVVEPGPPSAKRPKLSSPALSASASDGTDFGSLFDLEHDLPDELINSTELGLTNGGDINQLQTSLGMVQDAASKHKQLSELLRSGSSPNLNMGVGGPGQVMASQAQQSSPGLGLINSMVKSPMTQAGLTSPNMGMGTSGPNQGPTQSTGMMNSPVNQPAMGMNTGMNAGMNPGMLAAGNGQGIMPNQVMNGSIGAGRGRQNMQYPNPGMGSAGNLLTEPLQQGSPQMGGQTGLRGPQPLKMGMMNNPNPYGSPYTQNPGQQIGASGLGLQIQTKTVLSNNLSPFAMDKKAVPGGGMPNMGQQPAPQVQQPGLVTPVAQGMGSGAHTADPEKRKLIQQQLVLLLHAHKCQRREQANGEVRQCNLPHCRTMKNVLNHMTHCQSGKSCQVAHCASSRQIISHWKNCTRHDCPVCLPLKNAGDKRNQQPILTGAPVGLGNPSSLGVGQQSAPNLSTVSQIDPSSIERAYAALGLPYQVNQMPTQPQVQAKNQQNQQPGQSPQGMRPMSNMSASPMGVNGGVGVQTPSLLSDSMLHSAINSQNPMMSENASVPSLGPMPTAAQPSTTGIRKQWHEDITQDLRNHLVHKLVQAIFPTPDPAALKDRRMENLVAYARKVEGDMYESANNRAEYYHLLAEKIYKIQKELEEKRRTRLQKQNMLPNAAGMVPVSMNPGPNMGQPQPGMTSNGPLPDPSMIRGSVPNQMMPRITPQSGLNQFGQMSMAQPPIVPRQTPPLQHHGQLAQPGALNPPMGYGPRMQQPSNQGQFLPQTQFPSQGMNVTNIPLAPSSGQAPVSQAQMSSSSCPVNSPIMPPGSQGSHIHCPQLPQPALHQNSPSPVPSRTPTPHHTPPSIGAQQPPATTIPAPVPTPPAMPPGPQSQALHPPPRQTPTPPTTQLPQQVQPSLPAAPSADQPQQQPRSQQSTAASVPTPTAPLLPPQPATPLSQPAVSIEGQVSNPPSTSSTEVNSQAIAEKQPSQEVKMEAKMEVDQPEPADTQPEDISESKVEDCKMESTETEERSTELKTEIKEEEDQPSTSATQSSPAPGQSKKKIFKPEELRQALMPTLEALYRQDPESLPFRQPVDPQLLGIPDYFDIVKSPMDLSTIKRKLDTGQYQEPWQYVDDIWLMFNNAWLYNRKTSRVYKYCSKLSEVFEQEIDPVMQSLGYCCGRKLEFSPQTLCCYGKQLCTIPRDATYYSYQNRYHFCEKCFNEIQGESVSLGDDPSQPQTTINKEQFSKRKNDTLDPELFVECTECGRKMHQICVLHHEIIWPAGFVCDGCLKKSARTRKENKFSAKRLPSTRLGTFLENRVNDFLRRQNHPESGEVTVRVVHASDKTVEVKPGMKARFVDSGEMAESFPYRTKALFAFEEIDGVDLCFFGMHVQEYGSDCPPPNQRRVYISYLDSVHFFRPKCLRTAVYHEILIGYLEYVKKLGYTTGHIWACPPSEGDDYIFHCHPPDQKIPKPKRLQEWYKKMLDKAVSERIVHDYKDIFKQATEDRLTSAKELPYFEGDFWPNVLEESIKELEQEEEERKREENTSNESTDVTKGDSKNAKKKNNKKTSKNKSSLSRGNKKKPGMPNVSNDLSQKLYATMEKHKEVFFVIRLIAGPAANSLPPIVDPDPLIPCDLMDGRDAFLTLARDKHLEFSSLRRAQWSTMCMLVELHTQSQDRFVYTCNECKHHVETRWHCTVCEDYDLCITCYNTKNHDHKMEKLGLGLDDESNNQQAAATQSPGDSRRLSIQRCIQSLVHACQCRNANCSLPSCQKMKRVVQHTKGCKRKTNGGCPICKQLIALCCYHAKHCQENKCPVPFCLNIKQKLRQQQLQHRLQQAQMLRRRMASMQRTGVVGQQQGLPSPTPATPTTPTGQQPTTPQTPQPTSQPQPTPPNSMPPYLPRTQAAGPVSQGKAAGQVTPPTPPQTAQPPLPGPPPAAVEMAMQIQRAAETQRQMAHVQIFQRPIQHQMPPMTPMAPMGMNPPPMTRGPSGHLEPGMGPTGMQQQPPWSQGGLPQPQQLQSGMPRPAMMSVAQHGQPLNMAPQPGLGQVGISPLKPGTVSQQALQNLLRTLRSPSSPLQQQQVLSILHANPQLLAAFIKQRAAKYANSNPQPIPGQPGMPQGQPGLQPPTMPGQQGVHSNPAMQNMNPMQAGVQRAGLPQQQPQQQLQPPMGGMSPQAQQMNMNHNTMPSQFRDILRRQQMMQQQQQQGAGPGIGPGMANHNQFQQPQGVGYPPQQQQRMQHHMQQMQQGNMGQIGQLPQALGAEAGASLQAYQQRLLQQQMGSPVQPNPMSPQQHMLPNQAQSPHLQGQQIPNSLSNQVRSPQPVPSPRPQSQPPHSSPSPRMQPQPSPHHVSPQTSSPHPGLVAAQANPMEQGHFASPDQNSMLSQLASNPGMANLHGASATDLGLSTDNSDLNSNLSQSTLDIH

B1: human Foxp3 (natural protein, UniProt Q9BZS1 1-431, looked up)
chain: MPNPRPGKPSAPSLALGPSPGASPSWRAAPKASDLLGARGPGGTFQGRDLRGGAHASSSSLNPMPPSQLQLPTLPLVMVAPSGARLGPLPHLQALLQDRPHFMHQLSTVDAHARTPVLQVHPLESPAMISLTPPTTATGVFSLKARPGLPPGINVASLEWVSREPALLCTFPNPSAPRKDSTLSAVPQSSYPLLANGVCKWPGCEKVFEEPEDFLKHCQADHLLDEKGRAQCLLQREMVQSLEQQLVLEKEKLSAMQAHLAGKMALTKASSVASSDKGSCCIVAAGSQGPVVPAWSGPREAPDSLFAVRRHLWGSHGNSTFPEFLHNMDYFKFHNMRPPFTYATLIRWAILEAPEKQRTLNEIYHWFTRMFAFFRNHPATWKNAIRHNLSLHKCFVRVESEKGAVWTVDELEFRKKRSQRPSRCSNPTPGP
binding: binds
